Source: the supplement of paper PMC3334620
In all, about 33,000 sequences were measured (“E-score (-0.5 to 0.5)”: median about -0.016, highest 2% from about 0.3 on). This is one part of the list.

molecular target: T1, Yer184c (UniProt P39961); test: PBM E-score (8-mer binding enrichment) (E-score (-0.5 to 0.5)); higher = stronger / more preferred TF binding; details: protein concentration: 100 nM; construct: GST-full length
T1 sequence: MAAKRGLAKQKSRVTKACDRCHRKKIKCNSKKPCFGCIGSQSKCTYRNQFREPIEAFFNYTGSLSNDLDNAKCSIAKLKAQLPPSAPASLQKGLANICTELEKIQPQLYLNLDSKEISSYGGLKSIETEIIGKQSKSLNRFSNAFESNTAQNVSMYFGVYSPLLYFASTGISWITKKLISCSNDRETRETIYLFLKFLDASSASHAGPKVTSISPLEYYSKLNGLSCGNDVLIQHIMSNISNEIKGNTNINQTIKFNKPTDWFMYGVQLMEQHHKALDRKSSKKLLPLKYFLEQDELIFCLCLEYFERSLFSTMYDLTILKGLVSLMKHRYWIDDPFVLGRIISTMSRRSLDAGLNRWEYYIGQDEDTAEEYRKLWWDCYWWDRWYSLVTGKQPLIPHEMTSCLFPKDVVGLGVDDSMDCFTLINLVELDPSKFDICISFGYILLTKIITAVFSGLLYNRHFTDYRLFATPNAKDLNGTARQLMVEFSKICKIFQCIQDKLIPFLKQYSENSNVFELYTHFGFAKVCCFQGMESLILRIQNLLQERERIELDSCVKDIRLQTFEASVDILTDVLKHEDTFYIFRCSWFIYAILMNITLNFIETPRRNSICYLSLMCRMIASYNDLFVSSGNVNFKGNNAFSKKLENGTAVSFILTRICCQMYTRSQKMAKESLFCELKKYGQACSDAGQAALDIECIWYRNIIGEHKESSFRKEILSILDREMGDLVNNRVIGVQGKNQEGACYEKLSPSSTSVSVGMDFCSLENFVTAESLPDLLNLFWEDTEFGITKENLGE
Procedure, shortened: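 Universal all-10-mer Agilent arrays, double-stranded by primer extension on fresh or once-stripped slides, were probed with about 100-200 nM GST-tagged yeast transcription factors made by PURExpress. Fluorescent anti-GST detected bound protein, and masliner normalised the scans. E-scores from the Universal PBM Analysis Suite were given to each ungapped eight-base word pooled with its reverse complement.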

First: ACCCAGGT
Second: TAGCACCA
The “PBM E-score” value of the first is lower: -0.32 for the first, -0.0818 for the second.

Compared with CGCAACTC, GCGAGTCA is lower in “PBM E-score” value: 0.185 for the first, -0.143 for the second.

First: CTTGCGAA
Second: ACTGCGTC
The “PBM E-score” value of the first is higher: 0.174 for the first, -0.0743 for the second.

Going from ATCGTCGG to ACTCGTTC, the “PBM E-score” value rises from 0.0834 to 0.0874.

Compared with ACGGAAAT, GAACGCAA is lower in “PBM E-score” value: 0.39 for the first, 0.11 for the second.

Compared with GCAGCAGC, ACGTACAG is lower in “PBM E-score” value: -0.0995 for the first, -0.293 for the second.

Going from ACGACGCG to CACTGTGG, the “PBM E-score” value falls from 0.0857 to -0.283.

Compared with GCACATCA, AGGAGATG is lower in “PBM E-score” value: 0.0464 for the first, -0.0402 for the second.

Going from TAGACTAA to CGTTGATA, the “PBM E-score” value rises from -0.0929 to 0.155.

First: GGGCCAAA
Second: GTTCCAGA
The “PBM E-score” value of the first is lower: -0.0751 for the first, 0.12 for the second.

Compared with ATTCAATC, CGATGGGA is lower in “PBM E-score” value: 0.195 for the first, -0.0793 for the second.

Compared with TGGGTTAA, ACGTTACC is higher in “PBM E-score” value: -0.11 for the first, 0.0109 for the second.

Going from CCAGGGAA to GTGTCACA, the “PBM E-score” value rises from -0.288 to 0.12.

Going from ACACCTGG to GAAGGTCC, the “PBM E-score” value rises from -0.202 to -0.109.

Compared with GGTCAATA, ATGGTTCG is higher in “PBM E-score” value: -0.0777 for the first, 0.014 for the second.

First: CTAGTGTC
Second: AGGACGTG
The “PBM E-score” value of the first is higher: 0.0485 for the first, -0.216 for the second.

Going from GTTCTCGA to AATTAATT, the “PBM E-score” value rises from -0.0339 to 0.0189.

First: TAAGTCGA
Second: GTTCGATA
The “PBM E-score” value of the first is lower: -0.0984 for the first, 0.0722 for the second.

Compared with AATCCCCG, ATCCGGGC is higher in “PBM E-score” value: 0.0812 for the first, 0.363 for the second.

Going from AGGCCCCC to ACTTATGA, the “PBM E-score” value rises from -0.269 to 0.101.

Going from GCTTTTTA to CTGGATAA, the “PBM E-score” value falls from 0.166 to 0.0598.

Going from ACGTGAGA to AAAGGTCC, the “PBM E-score” value rises from -0.12 to -0.0647.

First: ACCTTGGA
Second: AGAGAGTG
The “PBM E-score” value of the first is lower: -0.233 for the first, -0.158 for the second.

Compared with GAGTTGGC, CCGGAAGA is higher in “PBM E-score” value: -0.17 for the first, 0.344 for the second.

Compared with AGTAAGGC, AAACCATC is higher in “PBM E-score” value: -0.0494 for the first, 0.12 for the second.

Compared with AACCGACG, CCCCAATA is lower in “PBM E-score” value: 0.189 for the first, -0.244 for the second.

First: AGTTCTAA
Second: ACCACGCA
The “PBM E-score” value of the first is higher: 0.121 for the first, -0.127 for the second.

Compared with CATACGCC, AGTGACTC is higher in “PBM E-score” value: -0.15 for the first, -0.068 for the second.

First: CTGAGAGA
Second: ATCAGTGC
The “PBM E-score” value of the first is higher: -0.0817 for the first, -0.0899 for the second.

Going from GTAACCGA to ATGAAGTG, the “PBM E-score” value falls from 0.182 to -0.132.

Compared with CGACAGGC, ACGGGTAG is higher in “PBM E-score” value: -0.289 for the first, 0.0261 for the second.

Compared with ACCTCCAG, AAAAGCGT is higher in “PBM E-score” value: -0.0698 for the first, 0.11 for the second.

Going from AAGCTATC to ATGTACGA, the “PBM E-score” value falls from 0.191 to -0.0855.

Going from CAGGAACG to GTAATTCA, the “PBM E-score” value rises from -0.0846 to 0.148.

Compared with GCCATGAC, TCTCACCA is higher in “PBM E-score” value: -0.229 for the first, 0.0788 for the second.

First: GCGGATCA
Second: CATATGCC
The “PBM E-score” value of the first is higher: 0.105 for the first, -0.0485 for the second.

Compared with ATTTGCCA, AGATAACT is lower in “PBM E-score” value: -0.0738 for the first, -0.116 for the second.

Going from CCACAGCA to CATCTTGC, the “PBM E-score” value rises from -0.0711 to 0.0249.

First: ACCGCAAT
Second: AACACGCG
The “PBM E-score” value of the first is higher: 0.167 for the first, -0.00328 for the second.

Going from ATGCTAAA to CAAAAATC, the “PBM E-score” value rises from 0.0332 to 0.0392.

Compared with AGCGTAAA, GGTGCGTA is lower in “PBM E-score” value: 0.0799 for the first, -0.0974 for the second.

Compared with AAAATTTG, GGAGCACA is lower in “PBM E-score” value: 0.168 for the first, -0.0179 for the second.

Going from AGCGCTCC to ATGGTGTA, the “PBM E-score” value falls from -0.0498 to -0.099.
